Results are given in words; binding and its absence hold for the method and conditions named. Binding seen in cells or lysates may run through a third protein. Some entries that bind do so weakly or less than the wild type.

Chains of the proteins cited; added tags and fusions are not shown. Residues count along the entry.
UniProt P78556, residues 27-96: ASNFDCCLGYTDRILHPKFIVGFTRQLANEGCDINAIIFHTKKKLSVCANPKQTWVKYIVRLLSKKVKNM

The target of the assay is T1, proteinase 3 (PR3), endogenously secreted by THP-1 cells (human (endogenous in THP-1)) (UniProt P24158).
T1 sequence: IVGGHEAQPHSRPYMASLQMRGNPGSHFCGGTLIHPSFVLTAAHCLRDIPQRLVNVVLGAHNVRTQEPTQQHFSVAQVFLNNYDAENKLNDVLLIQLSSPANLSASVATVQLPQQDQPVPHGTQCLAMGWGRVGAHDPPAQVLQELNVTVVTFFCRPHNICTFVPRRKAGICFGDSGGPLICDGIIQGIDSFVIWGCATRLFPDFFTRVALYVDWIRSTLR
As to the kind of experiment: co-IP + peptide or protein array; co-immunoprecipitation of endogenously secreted PR3 from conditioned medium of LPS-stimulated (CM-LPS) and nonstimulated (CM-CTRL) THP-1 cells, followed by a human cytokine array.

As for “CCL20 in conditioned medium of THP-1 cells (from UniProt P78556 27-96)”, the binding result is “binds”.

B1: interleukin (IL)-32 in conditioned medium of THP-1 cells (protein, UniProt P24001 31-234)
chain: AWVSACDTEDTVGHLGPWRDKDPALWCQLCLSSQHQAIERFYDKMQNAESGRGQVMSSLAELEDDFKEGYLETVAAYYEEQHPELTPLLEKERDGLRCRGNRSPVPDVEDPATEEPGESFCDKVMRWFQAMLQRLQTWWHGVLAWVKEKVVALVHAVQALWKQFQSFCCSLSELFMSSFQSYGAPRGDKEELTPQKCSEPQSSK
Consider B1, for which the binding result was “binds”.

Source of the values: article PMC11873038.
